{"source": "PubChem BioAssay AID493014", "about": "(National Center for Advancing Translational Sciences (NCATS), 2011)", "note": "In all, about 340,000 compounds went through this assay and about 170 (0.05%) were called active. The inconclusive results got no clear call from the source; some entries with a clear call stand among them for comparison. Calls come from the whole dose curve; as a rule, active = well fitted inhibition curve with a large enough effect in the signal ratio, with a control signal flat (not every such curve was filed as active); inconclusive = small, poorly fitted or top-dose-only effect, or effect the other way, or a change in a side signal; inactive = flat fitted curve, though single readings scatter; the % refers to the signal ratio. Potencies beside an inconclusive call are fits to weak or partial responses and may not hold up. Potency is the fitted concentration of half-maximal effect."}
{"test": "qHTS Assay to Find Inhibitors of Chronic Active B-Cell Receptor Signaling;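 for activity change, negative = inhibition: plate controls were basal doxycycline-induced cells for no effect and cells given 10 µM MG132 for full effect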", "settings": "ABC-DLBCL IkBa-CBG/CBR reporter, luminescence ratio (green luciferase fused to IkBa over red control in TMD8 lymphoma cells), 4 h; activity change, negative = inhibition: at 46.1 µM (top of the series) unless noted", "summary_of_the_method": "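TMD8 ABC-DLBCL cells carrying doxycycline-inducible green luciferase fused to IkappaBalpha plus unfused red luciferase were exposed to compounds (up to 46 uM) for 4 hrs at 37C. Activity came from the overlap-corrected green/red luminescence ratio.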"}
{"smiles": "Cc1ccc(-c2[nH]ncc2CNCCc2cnn(-c3ccccc3)c2)cc1C", "activity change, negative = inhibition": "inactive"}
{"smiles": "COc1ccc(-n2c(=S)[nH]c3ccccc3c2=S)cc1", "activity change, negative = inhibition": "inactive"}
{"smiles": "CCC(CC)C(=O)Nc1cccc(C(=O)Nc2ccc(OC)cc2[N+](=O)[O-])c1", "activity change, negative = inhibition": "inconclusive: 0.874%"}
{"smiles": "COc1ccc(C(=O)NNC(=O)C(NC(=O)c2cc(OC)cc(OC)c2)C(C)C)cc1", "note": "(stereo not drawn)", "activity change, negative = inhibition": "inactive"}
{"smiles": "CCC(C)Sc1cccc(-c2nc3ccc(C)cn3c2NCc2ccccc2)c1", "note": "(stereo not drawn)", "Potency": "inconclusive: 9.2 µM [rising, partial curve, poor fit]"}
{"smiles": "CN(C)CCCN(C(=O)c1ccc2c(c1)CCCC2)c1nc2cc3c(cc2s1)OCO3", "activity change, negative = inhibition": "inconclusive: -9.51%"}
{"smiles": "CN=C1SC(CC(=O)Nc2ccc(N3CCOCC3)cc2)C(=O)N1C", "note": "(stereo not drawn)", "activity change, negative = inhibition": "inconclusive: 1.05%"}
{"smiles": "Cc1cc(Cl)ccc1OCC(=O)N(Cc1cccs1)C1CCS(=O)(=O)C1", "note": "(stereo not drawn)", "Potency": "inconclusive: 28.2 µM [falling, single point]"}
{"smiles": "COc1ccc2cc(OCC(=O)NNC(=O)Nc3ccc(OC)c(OC)c3)ccc2c1", "activity change, negative = inhibition": "inconclusive: 3.88%"}
{"smiles": "COc1ccc(-c2nn(-c3ccccc3)cc2/C=C(\\C#N)C(N)=O)cc1[N+](=O)[O-]", "activity change, negative = inhibition": "inconclusive: -0.642%"}
{"smiles": "O=C(Nc1ccc2c(c1)OCCO2)C1CC(c2ccc(F)cc2)=NO1", "note": "(stereo not drawn)", "Potency": "inconclusive: 35.5 µM [falling, partial curve, poor fit]"}
{"smiles": "CCn1c(SCC(=O)Nc2ccccc2C(=O)OC)nnc1-c1cccc(C)c1", "activity change, negative = inhibition": "inactive"}
{"smiles": "COc1ccc2cc(CN(CCc3ccccc3)Cc3nnnn3CC3CCCO3)c(=O)[nH]c2c1", "note": "(stereo not drawn)", "activity change, negative = inhibition": "inconclusive: -15.9%"}
{"smiles": "CCN(C(=O)COC(=O)c1ccc(Cl)c(N)c1)C1CCS(=O)(=O)C1", "note": "(stereo not drawn)", "activity change, negative = inhibition": "inconclusive: -29.5%"}
{"smiles": "Cc1cc(C(F)(F)F)c(C#N)c(SCC(=O)NC2CC2)n1", "activity change, negative = inhibition": "inconclusive: 6.8%"}
{"smiles": "O=c1[nH]c(C2CCN(S(=O)(=O)/C=C/c3ccccc3)CC2)nc2c1nnn2Cc1ccc(F)cc1", "activity change, negative = inhibition": "inconclusive: 9.35%"}
{"smiles": "CCCCN=Cc1sc2ccc(OCC)cc2c1O", "activity change, negative = inhibition": "inconclusive: -141%"}
{"smiles": "CCc1ccc(Oc2coc3cc(OC(=O)c4cc5ccccc5oc4=O)ccc3c2=O)cc1", "activity change, negative = inhibition": "inconclusive: 3.52%"}
{"smiles": "O=C1CN(C(=O)c2ccc(Cl)nc2)c2ccccc2N1", "activity change, negative = inhibition": "inconclusive: 3.13%"}
{"smiles": "COc1ccc(-c2csc(NC(=S)NC(=O)c3ccco3)n2)cc1Br", "activity change, negative = inhibition": "inconclusive: -3.99%"}
{"smiles": "O=C(/C=C/c1ccc2c(c1)OCCO2)c1ccccc1", "Potency": "inconclusive: 35.5 µM [falling, single point]"}
{"smiles": "COc1ccc(NC(=O)CC2C(=O)N(C)C(=S)N2Cc2cccs2)cc1", "note": "(stereo not drawn)", "activity change, negative = inhibition": "inactive"}
{"smiles": "CC(C)[C@H](NC(=O)N1CCn2c1nc1ccccc12)C(=O)NCc1ccccc1Cl", "activity change, negative = inhibition": "inconclusive: -0.901%"}
{"smiles": "COc1ccccc1C(=O)Nc1ccc2oc(-c3ccc(F)cc3)nc2c1", "activity change, negative = inhibition": "inconclusive: 1.47%"}
{"smiles": "COc1cccc(-c2cc(=O)[nH][nH]2)c1", "activity change, negative = inhibition": "inconclusive: -3.65%"}
{"smiles": "COC(=O)c1ccccc1NC(=O)CN(c1ccc(OC)cc1)S(C)(=O)=O", "activity change, negative = inhibition": "inconclusive: 0.653%"}
{"smiles": "COc1ccc(C2C=C(Nc3ccccc3)C(=O)N2c2ccccc2)cc1OC", "note": "(stereo not drawn)", "Potency": "inconclusive: 18.4 µM [falling, single point]"}
{"smiles": "CCn1c2ccccc2c2cc(Nc3cc(C)nc4ncnn34)ccc21", "Potency": "inconclusive: 9.2 µM [falling, partial curve]"}
{"smiles": "COc1ccc(S(=O)(=O)NCC(c2cccnc2)N2CCN(C)CC2)cc1C", "note": "(stereo not drawn)", "activity change, negative = inhibition": "inactive"}
{"smiles": "O=c1nc(/C=C/c2ccc(O)c(O)c2)oc2ccccc12", "Potency": "inconclusive: 35.5 µM [rising, single point]"}
{"smiles": "CCOC(=O)c1ccc(NC(=O)CSc2nnnn2C2CCCCC2)cc1", "Potency": "inconclusive: 29.1 µM [falling, single point]"}
{"smiles": "COc1ccccc1CNc1ncccn1", "activity change, negative = inhibition": "inactive"}
{"smiles": "O=C(CC12CC3CC(CC(C3)C1)C2)N1CCCC1", "activity change, negative = inhibition": "inconclusive: -3.21%"}
{"smiles": "Cn1nc(C(=O)NNC(=O)C(CCC(N)=O)NS(=O)(=O)c2ccc(Cl)cc2)c2ccccc2c1=O", "note": "(stereo not drawn)", "activity change, negative = inhibition": "inactive"}
{"smiles": "COc1ccccc1CC(=O)Nc1ccc2c(C)cc(=O)oc2c1", "Potency": "inconclusive: 12.6 µM [falling, partial curve, poor fit]"}
{"smiles": "C[C@H](CO)N1C[C@H](C)[C@@H](CN(C)C(=O)Nc2ccc3c(c2)OCO3)Oc2ccc(NS(=O)(=O)c3ccccc3)cc2C1=O", "activity change, negative = inhibition": "inconclusive: 1.38%"}
{"smiles": "O=C(NCc1ccc(F)cc1)c1cccc(S(=O)(=O)N2CCOCC2)c1", "activity change, negative = inhibition": "inconclusive: 2.8%"}
{"smiles": "Cc1nc(-c2ccccn2)nc(SCC(=O)c2ccccc2)c1Cl", "activity change, negative = inhibition": "inconclusive: -1.81%"}
{"smiles": "CCCCn1cnc2c(oc3ccccc32)c1=O", "activity change, negative = inhibition": "inconclusive: -0.614%"}
{"smiles": "CN(C)C(CNC(=O)Cc1cccc(C(F)(F)F)c1)c1ccco1", "note": "(stereo not drawn)", "activity change, negative = inhibition": "inactive"}
{"smiles": "CC(OC(=O)CCCOc1ccccc1)C(=O)NC(N)=O", "note": "(stereo not drawn)", "activity change, negative = inhibition": "inconclusive: 5.61%"}
{"smiles": "Cc1cnccc1CNC(=O)C1CCC(=O)N(Cc2ccc(Cl)cc2)C1", "note": "(stereo not drawn)", "activity change, negative = inhibition": "inactive"}
{"smiles": "CC(C)(C)c1ccc(C(=O)N2CCC(C(=O)NC3CC3)CC2)cc1", "activity change, negative = inhibition": "inconclusive: 3.98%"}
{"smiles": "Oc1ccc(N2CCN(c3ncnc4sc(-c5ccccc5)cc34)CC2)cc1", "activity change, negative = inhibition": "inconclusive: 0.939%"}
{"smiles": "O=C1c2ccccc2C(=O)c2c(O)c(O)cc(O)c21", "activity change, negative = inhibition": "inactive"}
{"smiles": "O=C(c1cccn2c(=O)c3ccc(Cl)cc3nc12)N1CCN(Cc2ccc3c(c2)OCO3)CC1", "activity change, negative = inhibition": "inactive"}
{"smiles": "Cc1ccc(C)c(NC(=O)c2cc3ccccc3o2)c1", "Potency": "inconclusive: 20 µM [falling, partial curve]"}
{"smiles": "COc1ccc(NC(=O)C(=O)NCCC2CCCCN2S(=O)(=O)c2cccs2)cc1", "note": "(stereo not drawn)", "activity change, negative = inhibition": "inactive"}
{"smiles": "COc1ccc(C2C(C(C)=O)=C(O)C(=O)N2c2nc3ccccc3s2)cc1OC", "note": "(stereo not drawn)", "activity change, negative = inhibition": "inconclusive: 9.29%"}
{"smiles": "COc1ccc(CN2C[C@H]3CCCN3c3cc(Br)ccc3S2(=O)=O)cc1", "Potency": "inconclusive: 23.1 µM [falling, partial curve, poor fit]"}
{"smiles": "CCOC(=O)c1ccc(NC(=S)NCc2ccco2)cc1", "activity change, negative = inhibition": "inconclusive: 19.9%"}
{"smiles": "Cc1ccc(-c2nnn(CCOc3cccc(Br)c3)n2)cc1", "activity change, negative = inhibition": "inconclusive: 17.3%"}
{"smiles": "CCCC1(C(=O)O)NC(c2ccccc2O)C2C(=O)N(Cc3ccccc3)C(=O)C21", "note": "(stereo not drawn)", "activity change, negative = inhibition": "inconclusive: 11.7%"}
{"smiles": "Cc1cc(C)c(C(=O)COc2cccnc2[N+](=O)[O-])cc1C", "Potency": "inconclusive: 3.26 µM [rising, partial curve, poor fit]"}
{"smiles": "CC(C)(C)C1CCC(C(=O)Nc2ccccc2)CC1", "note": "(stereo not drawn)", "Potency": "inconclusive: 18.4 µM [rising, partial curve, poor fit]"}
{"smiles": "Cc1ccc(-c2oc3ccccc3c(=O)c2O)cc1", "activity change, negative = inhibition": "inactive"}
{"smiles": "O=C(CSc1ncnc2nc[nH]c12)N1CCN(c2ccc(Cl)cc2)CC1", "activity change, negative = inhibition": "inactive"}
{"smiles": "Cc1[nH]n(-c2ccccc2)c(=O)c1N=Nc1ccccc1C(=O)O", "Potency": "inconclusive: 25.1 µM [falling, partial curve]"}
{"smiles": "O=C(NCCOc1nc(N2CCCCC2)nc(N2CCCCC2)n1)Nc1ccccc1", "activity change, negative = inhibition": "inactive"}
{"smiles": "O=C(CCC1N=C2c3ccccc3N=C(SCc3ccc(F)cc3)N2C1=O)NC1CCCCC1", "note": "(stereo not drawn)", "activity change, negative = inhibition": "inconclusive: 18%"}
{"smiles": "CCOC(=O)CSc1nnc(Cn2nnc3ccccc32)n1-c1ccc(F)cc1", "activity change, negative = inhibition": "inconclusive: -0.859%"}
{"smiles": "CCCOC(=O)c1ccc(O)cc1", "activity change, negative = inhibition": "inconclusive: 26%"}
{"smiles": "O=C(Nc1ccc2c(c1)nc1n2CCSC1)c1ccco1", "Potency": "inconclusive: 35.5 µM [rising, single point]"}
{"smiles": "Cc1ccccc1OCC(=O)O/N=C(\\N)c1ccncc1", "activity change, negative = inhibition": "inactive"}
{"smiles": "COc1ccc(S(=O)(=O)N2CCOCC2)cc1NC(=O)CSc1n[nH]c(C(C)C)n1", "activity change, negative = inhibition": "inactive"}
{"smiles": "O=C(CCn1c(=O)[nH]c2ccsc2c1=O)N1CCc2ccccc2C1", "activity change, negative = inhibition": "inactive"}
{"smiles": "CCOC(=O)c1ccc(NC(=O)c2ccc(C)c(S(=O)(=O)N3CCOCC3)c2)cc1", "Potency": "inconclusive: 29.1 µM [falling, single point]"}
{"smiles": "CS(=O)(=O)c1ccc(Cl)c(NC(=O)C2CC(=O)N(Cc3ccccc3)C2)c1", "note": "(stereo not drawn)", "activity change, negative = inhibition": "inconclusive: -13.4%"}
{"smiles": "CCN1/C(=C/c2ccc3cc(C)ccc3[n+]2CC)Sc2cc(C)ccc21", "activity change, negative = inhibition": "inconclusive: 16.2%"}
{"smiles": "CCCCCOc1ccc(C(=O)NCC(=O)NCC(=O)OCC)cc1", "activity change, negative = inhibition": "inconclusive: -0.424%"}
{"smiles": "O=C(Nc1ccccn1)c1ccc(Cl)c(S(=O)(=O)N2CCCC2)c1", "activity change, negative = inhibition": "inconclusive: 11.5%"}
{"smiles": "CCn1c(CNc2cccc(Cl)c2)nnc1SCc1ccccc1", "activity change, negative = inhibition": "inconclusive: -0.344%"}
{"smiles": "O=C(NCC(c1cccs1)N1CCc2ccccc21)c1ccccc1", "note": "(stereo not drawn)", "activity change, negative = inhibition": "inactive"}
{"smiles": "COc1ccc(C(=O)c2c(C)oc3ccc(O)c(CN4CCOCC4)c23)cc1", "activity change, negative = inhibition": "inactive"}
{"smiles": "CCN(CCN(C)C)C(=O)C1CCN(S(=O)(=O)c2c(C)noc2/C=C/c2ccccc2F)CC1", "activity change, negative = inhibition": "inactive"}
{"smiles": "COc1ccc(-c2csc(Nc3ccccn3)n2)cc1", "Potency": "inconclusive: 35.5 µM [rising, single point]"}
{"smiles": "CC(C(=O)N1CCCc2c1c(=O)oc1ccc(O)cc21)N1CCc2ccccc2C1", "note": "(stereo not drawn)", "activity change, negative = inhibition": "inactive"}
{"smiles": "CCc1c(C)c2ccc(OCC(=O)OC(C)C)c(C)c2oc1=O", "activity change, negative = inhibition": "inactive"}
{"smiles": "COc1ccccc1Nc1ccc(N)cc1", "activity change, negative = inhibition": "inactive"}
{"smiles": "c1cncc(CNc2cccc(-c3nc4ccccc4[nH]3)c2)c1", "Potency": "inconclusive: 6.51 µM [falling, partial curve, poor fit]"}
{"smiles": "CO/N=C/C(C#N)=C/c1cc(C(=O)c2ccc(F)cc2)cn1C", "activity change, negative = inhibition": "inconclusive: 1.98%"}
{"smiles": "COc1ccc(C(=O)NC(=S)NNC(=O)c2c(-c3ccccc3)noc2C)cc1OC", "activity change, negative = inhibition": "inconclusive: -19.4%"}
{"smiles": "CCN1CCCC1CNC(=O)C(=O)Nc1cccc(OC)c1", "note": "(stereo not drawn)", "activity change, negative = inhibition": "inconclusive: -7.35%"}
